The supplement of paper PMC10849652
Some of the results follow.

Chains of the proteins cited; added tags and fusions are not shown. Lines headed by an entry give the natural chain unless they say otherwise; changes in a name come on top.
UniProt Q9NPH2: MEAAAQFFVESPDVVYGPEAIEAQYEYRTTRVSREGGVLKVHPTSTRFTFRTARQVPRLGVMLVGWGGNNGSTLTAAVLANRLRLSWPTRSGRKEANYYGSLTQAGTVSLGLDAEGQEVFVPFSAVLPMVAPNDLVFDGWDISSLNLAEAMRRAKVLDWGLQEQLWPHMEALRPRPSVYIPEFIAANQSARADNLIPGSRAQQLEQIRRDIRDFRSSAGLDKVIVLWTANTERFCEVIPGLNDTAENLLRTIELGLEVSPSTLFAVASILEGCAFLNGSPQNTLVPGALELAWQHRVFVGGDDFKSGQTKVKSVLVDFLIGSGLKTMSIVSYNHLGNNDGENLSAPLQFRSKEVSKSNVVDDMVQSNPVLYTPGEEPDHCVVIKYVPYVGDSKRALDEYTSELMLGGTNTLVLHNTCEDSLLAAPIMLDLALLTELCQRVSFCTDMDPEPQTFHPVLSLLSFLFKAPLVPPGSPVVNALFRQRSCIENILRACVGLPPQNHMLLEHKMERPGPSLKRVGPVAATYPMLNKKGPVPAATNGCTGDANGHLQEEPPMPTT
UniProt Q5TA45, whole entry, looked up: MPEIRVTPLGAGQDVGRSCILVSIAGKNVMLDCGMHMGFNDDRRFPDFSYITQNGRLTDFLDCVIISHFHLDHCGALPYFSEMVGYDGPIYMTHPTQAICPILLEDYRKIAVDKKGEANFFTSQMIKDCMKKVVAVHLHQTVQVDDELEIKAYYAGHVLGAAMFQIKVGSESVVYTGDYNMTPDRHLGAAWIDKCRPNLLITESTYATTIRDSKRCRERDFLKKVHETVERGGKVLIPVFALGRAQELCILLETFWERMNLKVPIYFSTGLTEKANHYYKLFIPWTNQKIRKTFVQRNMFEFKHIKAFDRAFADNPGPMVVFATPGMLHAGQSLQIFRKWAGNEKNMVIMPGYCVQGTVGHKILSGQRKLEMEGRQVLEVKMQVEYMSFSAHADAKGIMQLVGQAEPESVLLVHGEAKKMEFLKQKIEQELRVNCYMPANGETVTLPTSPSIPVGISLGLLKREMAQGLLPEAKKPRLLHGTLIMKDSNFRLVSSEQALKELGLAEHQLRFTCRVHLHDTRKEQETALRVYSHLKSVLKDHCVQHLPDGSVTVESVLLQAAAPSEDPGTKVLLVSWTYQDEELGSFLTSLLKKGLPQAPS
UniProt Q14116, whole entry, looked up: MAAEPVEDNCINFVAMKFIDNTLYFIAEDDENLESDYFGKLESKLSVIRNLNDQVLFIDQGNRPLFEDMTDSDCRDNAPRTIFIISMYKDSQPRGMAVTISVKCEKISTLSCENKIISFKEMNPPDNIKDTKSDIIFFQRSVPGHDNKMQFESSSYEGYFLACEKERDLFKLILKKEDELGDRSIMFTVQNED
UniProt Q96T52: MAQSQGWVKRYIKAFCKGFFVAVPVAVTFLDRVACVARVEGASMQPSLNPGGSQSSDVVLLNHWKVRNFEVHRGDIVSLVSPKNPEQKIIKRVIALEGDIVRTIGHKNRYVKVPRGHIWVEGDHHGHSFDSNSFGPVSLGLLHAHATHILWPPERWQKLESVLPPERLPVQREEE
UniProt Q8WZA9: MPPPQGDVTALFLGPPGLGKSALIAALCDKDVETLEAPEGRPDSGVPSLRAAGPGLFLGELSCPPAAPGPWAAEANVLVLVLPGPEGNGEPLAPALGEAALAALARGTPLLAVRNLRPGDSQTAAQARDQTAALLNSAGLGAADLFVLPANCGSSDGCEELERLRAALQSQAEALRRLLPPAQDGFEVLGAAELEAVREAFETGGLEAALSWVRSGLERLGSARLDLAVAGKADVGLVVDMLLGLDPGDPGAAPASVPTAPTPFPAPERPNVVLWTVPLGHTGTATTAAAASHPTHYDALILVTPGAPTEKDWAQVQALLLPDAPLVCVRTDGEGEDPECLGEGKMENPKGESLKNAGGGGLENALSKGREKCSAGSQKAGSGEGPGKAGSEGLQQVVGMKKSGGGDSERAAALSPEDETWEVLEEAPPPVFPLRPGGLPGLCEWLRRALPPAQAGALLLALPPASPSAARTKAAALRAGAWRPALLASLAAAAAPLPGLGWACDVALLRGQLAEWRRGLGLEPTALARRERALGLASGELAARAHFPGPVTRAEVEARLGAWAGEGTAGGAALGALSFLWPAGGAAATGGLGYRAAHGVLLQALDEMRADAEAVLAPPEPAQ
UniProt O75874, whole entry, looked up: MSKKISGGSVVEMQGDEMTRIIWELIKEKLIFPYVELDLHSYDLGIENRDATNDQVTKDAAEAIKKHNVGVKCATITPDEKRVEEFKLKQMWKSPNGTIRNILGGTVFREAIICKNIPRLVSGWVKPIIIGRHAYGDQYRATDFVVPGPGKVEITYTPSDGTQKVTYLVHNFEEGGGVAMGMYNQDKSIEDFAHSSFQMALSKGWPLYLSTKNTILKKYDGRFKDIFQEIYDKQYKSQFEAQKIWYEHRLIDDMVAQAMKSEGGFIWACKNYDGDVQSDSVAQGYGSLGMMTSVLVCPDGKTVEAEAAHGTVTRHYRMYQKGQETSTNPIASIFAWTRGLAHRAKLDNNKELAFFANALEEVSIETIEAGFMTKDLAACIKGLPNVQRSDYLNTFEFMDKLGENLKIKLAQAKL
UniProt P51553: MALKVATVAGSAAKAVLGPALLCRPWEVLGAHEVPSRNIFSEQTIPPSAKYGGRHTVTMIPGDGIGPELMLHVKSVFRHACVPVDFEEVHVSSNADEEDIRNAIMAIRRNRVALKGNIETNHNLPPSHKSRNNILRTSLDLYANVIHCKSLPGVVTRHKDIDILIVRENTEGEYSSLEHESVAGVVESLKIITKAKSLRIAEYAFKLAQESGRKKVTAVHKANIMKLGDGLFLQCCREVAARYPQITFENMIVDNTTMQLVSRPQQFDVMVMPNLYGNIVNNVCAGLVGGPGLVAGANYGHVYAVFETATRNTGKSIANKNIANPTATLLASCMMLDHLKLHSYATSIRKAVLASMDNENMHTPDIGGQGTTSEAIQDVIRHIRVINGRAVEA
UniProt P80217: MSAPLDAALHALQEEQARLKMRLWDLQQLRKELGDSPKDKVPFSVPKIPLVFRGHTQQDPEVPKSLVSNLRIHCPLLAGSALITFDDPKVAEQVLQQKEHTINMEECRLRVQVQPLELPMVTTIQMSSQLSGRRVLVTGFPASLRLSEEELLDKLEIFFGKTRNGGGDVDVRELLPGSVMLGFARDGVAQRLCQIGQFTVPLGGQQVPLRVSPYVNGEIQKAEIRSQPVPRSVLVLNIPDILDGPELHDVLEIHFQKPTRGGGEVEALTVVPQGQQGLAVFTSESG
UniProt Q9NZI8, whole entry, looked up: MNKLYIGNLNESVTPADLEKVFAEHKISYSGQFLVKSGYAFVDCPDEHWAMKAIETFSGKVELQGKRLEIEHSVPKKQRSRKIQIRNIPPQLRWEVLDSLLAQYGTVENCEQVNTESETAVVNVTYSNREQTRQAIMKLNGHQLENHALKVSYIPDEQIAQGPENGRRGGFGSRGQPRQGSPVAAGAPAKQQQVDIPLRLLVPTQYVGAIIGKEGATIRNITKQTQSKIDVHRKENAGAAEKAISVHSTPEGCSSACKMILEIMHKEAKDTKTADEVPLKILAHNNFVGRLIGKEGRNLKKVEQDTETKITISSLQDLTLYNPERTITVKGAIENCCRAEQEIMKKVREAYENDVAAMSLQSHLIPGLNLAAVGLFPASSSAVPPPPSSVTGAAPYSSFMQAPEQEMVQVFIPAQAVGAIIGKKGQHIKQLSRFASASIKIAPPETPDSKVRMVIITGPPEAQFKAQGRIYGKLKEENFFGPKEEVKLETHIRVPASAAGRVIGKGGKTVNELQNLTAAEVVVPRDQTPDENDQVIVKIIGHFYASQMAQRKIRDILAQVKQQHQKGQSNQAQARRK
UniProt Q96HW7, whole entry, looked up: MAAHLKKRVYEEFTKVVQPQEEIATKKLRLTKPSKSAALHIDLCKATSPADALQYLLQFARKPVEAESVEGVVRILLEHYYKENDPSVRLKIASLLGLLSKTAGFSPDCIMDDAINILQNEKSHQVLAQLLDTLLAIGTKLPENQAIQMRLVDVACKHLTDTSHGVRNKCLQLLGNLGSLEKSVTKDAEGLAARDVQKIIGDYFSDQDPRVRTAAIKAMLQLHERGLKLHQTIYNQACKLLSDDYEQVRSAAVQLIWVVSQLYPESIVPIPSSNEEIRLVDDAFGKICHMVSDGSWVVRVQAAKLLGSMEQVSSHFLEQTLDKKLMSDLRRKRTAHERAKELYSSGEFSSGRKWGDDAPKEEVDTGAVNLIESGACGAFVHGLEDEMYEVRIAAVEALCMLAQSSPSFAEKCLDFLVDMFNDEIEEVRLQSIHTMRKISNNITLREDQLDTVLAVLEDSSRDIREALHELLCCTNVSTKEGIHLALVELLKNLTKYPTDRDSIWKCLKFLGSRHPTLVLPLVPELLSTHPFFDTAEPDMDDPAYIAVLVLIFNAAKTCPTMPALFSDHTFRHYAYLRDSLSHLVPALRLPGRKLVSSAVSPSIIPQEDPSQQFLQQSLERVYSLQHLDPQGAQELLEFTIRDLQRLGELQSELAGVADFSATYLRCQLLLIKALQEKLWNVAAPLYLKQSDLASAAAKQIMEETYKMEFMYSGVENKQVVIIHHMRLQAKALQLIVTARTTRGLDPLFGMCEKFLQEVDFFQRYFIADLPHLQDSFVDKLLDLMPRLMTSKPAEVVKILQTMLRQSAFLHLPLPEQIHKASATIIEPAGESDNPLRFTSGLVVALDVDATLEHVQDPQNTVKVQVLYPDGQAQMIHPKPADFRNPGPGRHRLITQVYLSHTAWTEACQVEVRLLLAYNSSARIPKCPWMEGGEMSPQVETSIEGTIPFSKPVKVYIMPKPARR
UniProt Q13576: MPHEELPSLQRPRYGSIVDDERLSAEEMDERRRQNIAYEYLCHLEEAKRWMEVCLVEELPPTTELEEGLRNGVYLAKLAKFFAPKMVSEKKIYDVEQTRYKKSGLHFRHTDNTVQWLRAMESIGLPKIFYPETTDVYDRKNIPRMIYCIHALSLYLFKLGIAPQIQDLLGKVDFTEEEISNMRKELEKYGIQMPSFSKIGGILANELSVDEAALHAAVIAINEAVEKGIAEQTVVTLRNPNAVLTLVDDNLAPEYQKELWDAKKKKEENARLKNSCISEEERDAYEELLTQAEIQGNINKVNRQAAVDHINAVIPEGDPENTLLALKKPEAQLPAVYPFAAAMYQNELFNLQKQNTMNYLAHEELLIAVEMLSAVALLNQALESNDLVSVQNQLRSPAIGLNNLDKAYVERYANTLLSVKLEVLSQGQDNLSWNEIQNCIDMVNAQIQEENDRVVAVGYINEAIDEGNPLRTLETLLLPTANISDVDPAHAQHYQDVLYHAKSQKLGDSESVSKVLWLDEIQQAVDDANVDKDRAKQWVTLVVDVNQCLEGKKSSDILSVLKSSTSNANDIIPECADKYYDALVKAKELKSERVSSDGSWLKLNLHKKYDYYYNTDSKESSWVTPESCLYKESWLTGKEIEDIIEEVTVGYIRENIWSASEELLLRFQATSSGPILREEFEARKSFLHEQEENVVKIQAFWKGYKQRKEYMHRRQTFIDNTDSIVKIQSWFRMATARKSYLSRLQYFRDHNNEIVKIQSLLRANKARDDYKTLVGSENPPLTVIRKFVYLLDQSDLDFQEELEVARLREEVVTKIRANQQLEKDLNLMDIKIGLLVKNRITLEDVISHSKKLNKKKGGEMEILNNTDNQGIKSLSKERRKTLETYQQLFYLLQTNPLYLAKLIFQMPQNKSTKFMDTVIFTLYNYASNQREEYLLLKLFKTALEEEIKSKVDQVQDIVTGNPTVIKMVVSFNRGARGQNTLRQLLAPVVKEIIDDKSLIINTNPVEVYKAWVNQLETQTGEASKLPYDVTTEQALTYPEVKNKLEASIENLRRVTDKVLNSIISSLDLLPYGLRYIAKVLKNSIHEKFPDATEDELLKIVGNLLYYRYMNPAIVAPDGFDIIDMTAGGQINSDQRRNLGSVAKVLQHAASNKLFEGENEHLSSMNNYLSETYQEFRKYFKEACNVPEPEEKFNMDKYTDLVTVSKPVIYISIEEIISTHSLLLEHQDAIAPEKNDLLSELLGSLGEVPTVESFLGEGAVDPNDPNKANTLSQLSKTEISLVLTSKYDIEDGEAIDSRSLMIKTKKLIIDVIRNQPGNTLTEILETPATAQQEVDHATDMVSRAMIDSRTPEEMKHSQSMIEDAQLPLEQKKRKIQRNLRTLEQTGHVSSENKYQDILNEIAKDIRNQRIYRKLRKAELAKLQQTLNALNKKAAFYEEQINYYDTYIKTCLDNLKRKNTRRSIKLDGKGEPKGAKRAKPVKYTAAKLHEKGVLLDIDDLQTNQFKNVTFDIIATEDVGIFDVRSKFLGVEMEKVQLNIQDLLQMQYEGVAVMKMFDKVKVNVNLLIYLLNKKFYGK

What was measured:
Assay in all cases: log2 fold change, soluble protein after heating vs DMSO (PISA); higher = thermal stabilisation; K562 cells, 10 uM, 30 min; active = over 0.2 and 3.5 SD of the protein, either way, in both replicates (recomputed)
[1] = compound: CN1CCN(CCOc2cc(OC3CCOCC3)c3c(Nc4c(Cl)ccc5c4OCO5)ncnc3c2)CC1 [saracatinib]
In short: (§1)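 Aliquots of K562 cells (2×10^6 cells/mL) treated with 10 μM compound for 30 min were heated for 3 min over 48°C-58°C. After pooling and extraction in PBS with 0.5% NP-40 at 4°C, soluble protein from a 21,000xg, 90 min spin was quantified by TMTpro 16plex LC-MS/MS with channel sums equalised. Thermal stability is expressed against control samples, from duplicates, as a log2 fold change.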

[2] = compound: CN1CCN(c2nc(C3=C(c4c[nH]c5ccccc45)C(=O)NC3=O)c3ccccc3n2)CC1 [sotrastaurin]
In short: as §1

[3] = compound: CN1CC[C@H](c2c(O)cc(O)c3c(=O)cc(-c4ccccc4Cl)oc23)[C@H](O)C1 [alvocidib]
In short: as §1

[4] = compound: CN1CCc2c(c3ccccc3n2Cc2ccc(C(=O)NO)cc2)C1 [Tubastatin A]
In short: as §1

[5] = compound: CNC(=O)C1=CC=CC=C1NC2=NC(=NC=C2Cl)NC3=C(C=C(C=C3)N4CCOCC4)OC
In short: as §1

[6] = compound: CNC(=O)c1ccc(Nc2ncc(C(F)(F)F)c(NCc3nccnc3N(C)S(C)(=O)=O)n2)cc1 [defactinib]
In short: as §1

[7] = compound: CNCc1ccc(-c2[nH]c3cc(F)cc4c3c2CCNC4=O)cc1 [rucaparib]
In short: as §1

[8] = compound: CNc1nc(-c2ccc3c(N)n[nH]c3c2)cc(N2C[C@@H](C(=O)NC3CCCCC3)CC[C@H]2C)n1
In short: as §1

[9] = compound: COC(=O)N[C@@H](C)CNc1nccc(-c2cn(C(C)C)nc2-c2cc(Cl)cc(NS(C)(=O)=O)c2F)n1 [encorafenib]
In short: as §1

[10] = compound: COC(=O)[C@H](CCSC)NC(=O)C1=C(C=C(C=C1)NC[C@H](CS)N)C2=CC=CC=C2
In short: as §1

[11] = compound: COC1=CC=C(C=C1)CN2C=CC3=C2C=C(C=C3)C(=O)NO
In short: as §1

[12] = compound: CON(C)C(=O)N1N=C(c2cc(F)ccc2F)S[C@@]1(CCCN)c1ccccc1 [filanesib]
In short: as §1

[13] = compound: CO[C@H]1C[C@@H]2CC[C@@H](C)[C@@](O)(O2)C(=O)C(=O)N2CCCC[C@H]2C(=O)O[C@H]([C@H](C)C[C@@H]2CC[C@H](n3cnnn3)[C@H](OC)C2)CC(=O)[C@H](C)/C=C(\C)[C@@H](O)[C@@H](OC)C(=O)[C@H](C)C[C@H](C)/C=C/C=C/C=C/1C [zotarolimus]
In short: as §1

[14] = compound: COc1cc(C(=O)O)ccc1NC(=O)[C@@H]1N[C@@H](CC(C)(C)C)[C@](C#N)(c2ccc(Cl)cc2F)[C@H]1c1cccc(Cl)c1F [idasanutlin]
In short: as §1

[15] = compound: COc1cc(Nc2ncc3c(n2)-c2ccc(Cl)cc2C(c2c(F)cccc2OC)=NC3)ccc1C(=O)O [alisertib]
In short: as §1

[16] = compound: COc1cc2nc(-c3cc(F)ccc3O)nc(N[C@@H]3CNC[C@H]3C(C)(C)O)c2cc1OC
In short: as §1

[17] = compound: COc1cc2ncnc(Nc3ccc(F)c(Cl)c3)c2cc1OCCCN1CCOCC1 [gefitinib]
In short: as §1

[18] = compound: COc1cccc2cc(-c3nc([C@H]4CC[C@H](C(=O)O)CC4)n4ncnc(N)c34)[nH]c12
In short: as §1

[19] = compound: CS(=O)(=O)CCNCc1ccc(-c2ccc3ncnc(Nc4ccc(OCc5cccc(F)c5)c(Cl)c4)c3c2)o1 [lapatinib]
In short: as §1

[20] = compound: CS(=O)(=O)N1CCN(Cc2cc3nc(-c4cccc5[nH]ncc45)nc(N4CCOCC4)c3s2)CC1 [pictilisib]
In short: as §1

Measured: log2 fold change

ISYNA1 (UniProt Q9NPH2)
inactive: [1] 0.039 | [2] 0.021 | [3] -0.075 | [4] 0 | [5] -0.013 | [6] 0.004 | [7] -0.075 | [8] -0.008 | [9] 0.066 | [10] -0.015 | [11] -0.008 | [12] -0.075 | [13] -0.024 | [14] -0.018 | [15] 0.04 | [16] 0.018 | [17] 0.024 | [18] -0.066 | [19] -0.017 | [20] 0.034

INTS11 (UniProt Q5TA45)
inactive: [1] 0.046 | [2] -0.026 | [3] -0.03 | [4] -0.051 | [5] 0.01 | [6] -0.076 | [7] 0.006 | [8] 0.004 | [9] -0.01 | [10] -0.029 | [11] 0.061 | [12] -0.021 | [13] 0.07 | [14] -0.042 | [15] -0.04 | [16] 0.006 | [17] 0.006 | [18] -0.019 | [19] 0.034 | [20] -0.005

IL18 (UniProt Q14116)
inactive: [1] -0.011 | [2] 0.026 | [3] 0.01 | [4] -0.019 | [5] -0.02 | [6] -0.059 | [7] -0.048 | [8] -0.064 | [9] -0.006 | [10] 0.006 | [11] -0.038 | [12] 0.008 | [13] -0.017 | [14] -0.07 | [15] -0.007 | [16] 0.036 | [17] -0.028 | [18] 0.088 | [19] 0.002 | [20] -0.008

IMMP2L (UniProt Q96T52)
inactive: [1] 0.003 | [2] 0.021 | [3] 0.012 | [4] -0.052 | [5] 0.023 | [6] -0.1 | [7] -0.007 | [8] -0.034 | [9] 0.082 | [10] -0.04 | [11] -0.077 | [12] -0.027 | [13] 0.012 | [14] -0.103 | [15] -0.094 | [16] 0.03 | [17] 0.027 | [18] 0.027 | [19] 0.02 | [20] -0.023

IRGQ (UniProt Q8WZA9)
inactive: [1] 0.033 | [2] -0.075 | [3] -0.055 | [4] 0 | [5] -0.022 | [6] -0.034 | [7] -0.017 | [8] -0.037 | [9] 0.004 | [10] 0.039 | [11] -0.024 | [12] -0.042 | [13] 0.054 | [14] -0.075 | [15] 0.064 | [16] 0.096 | [17] -0.016 | [18] -0.008 | [19] 0 | [20] -0.01

INPP4A (UniProt Q96PE3)
inactive: [1] 0.02 | [2] -0.002 | [3] -0.083 | [4] -0.004 | [5] 0.02 | [6] -0.16 | [7] -0.042 | [8] -0.086 | [9] 0.011 | [10] 0.001 | [11] -0.039 | [12] 0.006 | [13] 0.019 | [14] -0.03 | [15] 0.099 | [16] 0.075 | [17] -0.001 | [18] 0.002 | [19] 0.012 | [20] 0.096

IMPA1 isoform 3 (UniProt P29218)
inactive: [1] 0.082 | [2] 0.004 | [3] 0.014 | [4] -0.019 | [5] 0.01 | [6] 0.005 | [7] -0.05 | [8] -0.05 | [9] -0.013 | [10] 0.002 | [11] -0.04 | [12] -0.012 | [13] -0.036 | [14] 0.035 | [15] -0.018 | [16] 0.038 | [17] 0.006 | [18] 0.057 | [19] 0.015 | [20] 0.038

IREB2 (UniProt P48200)
inactive: [1] -0.042 | [2] -0.042 | [3] -0.012 | [4] -0.152 | [5] -0.015 | [6] 0.003 | [7] 0.09 | [8] 0.001 | [9] 0.085 | [10] -0.004 | [11] -0.169 | [12] 0.032 | [13] -0.009 | [14] 0.033 | [15] -0.056 | [16] 0.004 | [17] -0.067 | [18] -0.052 | [19] 0.011 | [20] 0.04

IDH1 (UniProt O75874)
inactive: [1] 0.031 | [2] 0.022 | [3] 0.014 | [4] -0.034 | [5] -0.032 | [6] -0.001 | [7] -0.056 | [8] -0.038 | [9] -0.003 | [10] 0.017 | [11] 0.026 | [12] -0.06 | [13] -0.031 | [14] -0.026 | [15] -0.008 | [16] 0.028 | [17] -0.003 | [18] 0.055 | [19] -0.037 | [20] 0.017

ITPA (UniProt Q9BY32)
inactive: [1] -0.037 | [2] 0.017 | [3] -0.006 | [4] 0.022 | [5] -0.068 | [6] -0.002 | [7] 0.034 | [8] -0.024 | [9] -0.023 | [10] -0.026 | [11] 0.003 | [12] -0.048 | [13] 0.007 | [14] -0.034 | [15] -0.019 | [16] 0 | [17] 0.003 | [18] 0.056 | [19] 0.021 | [20] 0.077

IDH3G (UniProt P51553)
inactive: [1] -0.008 | [2] 0.008 | [3] 0.01 | [4] -0.024 | [5] 0.003 | [6] -0.017 | [7] -0.005 | [8] 0.024 | [9] -0.012 | [10] -0.021 | [11] -0.032 | [12] -0.045 | [13] -0.004 | [14] -0.058 | [15] -0.129 | [16] 0.003 | [17] 0.031 | [18] 0.064 | [19] 0.004 | [20] 0.027

Retrieved one by one from the entries so far (2):
IREB2 (UniProt P48200)
inactive: [1] -0.042 | [2] -0.042 | [3] -0.012 | [4] -0.152 | [5] -0.015 | [6] 0.003 | [7] 0.09 | [8] 0.001 | [9] 0.085 | [10] -0.004 | [11] -0.169 | [12] 0.032 | [13] -0.009 | [14] 0.033 | [15] -0.056 | [16] 0.004 | [17] -0.067 | [18] -0.052 | [19] 0.011 | [20] 0.04

IDH1 (UniProt O75874)
inactive: [1] 0.031 | [2] 0.022 | [3] 0.014 | [4] -0.034 | [5] -0.032 | [6] -0.001 | [7] -0.056 | [8] -0.038 | [9] -0.003 | [10] 0.017 | [11] 0.026 | [12] -0.06 | [13] -0.031 | [14] -0.026 | [15] -0.008 | [16] 0.028 | [17] -0.003 | [18] 0.055 | [19] -0.037 | [20] 0.017

(continued)

IFI35 isoform 2 (UniProt P80217)
inactive: [1] 0.03 | [2] 0.017 | [3] -0.046 | [4] 0.003 | [5] -0.052 | [6] -0.018 | [7] 0.036 | [8] 0.013 | [9] -0.037 | [10] -0.011 | [11] 0.008 | [12] -0.115 | [13] 0.018 | [14] -0.027 | [15] -0.08 | [16] -0.001 | [17] 0.036 | [18] 0.022 | [19] -0.019 | [20] 0.021

IGF2BP1 (UniProt Q9NZI8)
inactive: [1] -0.111 | [2] -0.185 | [3] 0.133 | [4] 0.125 | [5] 0.033 | [6] 0.093 | [7] 0.46 | [8] 0.093 | [9] 0.272 | [10] -0.017 | [11] -0.051 | [12] 0.292 | [13] 0.012 | [14] 0.331 | [15] 0.071 | [16] -0.339 | [17] -0.016 | [18] -0.141 | [19] 0.106 | [20] -0.111

INTS4 (UniProt Q96HW7)
inactive: [1] 0.032 | [2] 0.005 | [3] -0.094 | [4] -0.013 | [5] -0.015 | [6] -0.042 | [7] -0.018 | [8] -0.064 | [9] 0.004 | [10] -0.01 | [11] -0.021 | [12] -0.001 | [13] -0.028 | [14] -0.061 | [15] -0.002 | [16] 0.007 | [17] 0.028 | [18] 0.023 | [19] -0.009 | [20] 0.066

IQGAP2 (UniProt Q13576)
inactive: [1] -0.168 | [2] -0.141 | [3] -0.139 | [4] 0.17 | [5] -0.123 | [6] -0.162 | [7] 0.088 | [8] 0.086 | [9] 0.16 | [10] -0.165 | [11] -0.005 | [12] 0.052 | [13] 0.058 | [14] 0.018 | [15] 0.1 | [16] 0.036 | [17] 0.047 | [18] -0.107 | [19] -0.047 | [20] -0.022

INTS9 (UniProt Q9NV88)
inactive: [1] 0.021 | [2] -0.041 | [3] -0.055 | [4] 0.021 | [5] -0.024 | [6] -0.106 | [7] -0.054 | [8] -0.03 | [9] 0.007 | [10] 0.016 | [11] -0.016 | [12] -0.032 | [13] 0.031 | [14] -0.082 | [15] 0.042 | [16] 0.035 | [17] 0.031 | [18] 0.016 | [19] -0.036 | [20] 0.028
